Test results reported in publication doi:10.1101/2023.10.13.562167.
These are yes or no findings as the source states them, for the method shown. In cells and extracts the contact can be indirect.

The chains behind the UniProt entries cited, without tags or fusion partners. Residues count along the entry.
UniProt Q5S007: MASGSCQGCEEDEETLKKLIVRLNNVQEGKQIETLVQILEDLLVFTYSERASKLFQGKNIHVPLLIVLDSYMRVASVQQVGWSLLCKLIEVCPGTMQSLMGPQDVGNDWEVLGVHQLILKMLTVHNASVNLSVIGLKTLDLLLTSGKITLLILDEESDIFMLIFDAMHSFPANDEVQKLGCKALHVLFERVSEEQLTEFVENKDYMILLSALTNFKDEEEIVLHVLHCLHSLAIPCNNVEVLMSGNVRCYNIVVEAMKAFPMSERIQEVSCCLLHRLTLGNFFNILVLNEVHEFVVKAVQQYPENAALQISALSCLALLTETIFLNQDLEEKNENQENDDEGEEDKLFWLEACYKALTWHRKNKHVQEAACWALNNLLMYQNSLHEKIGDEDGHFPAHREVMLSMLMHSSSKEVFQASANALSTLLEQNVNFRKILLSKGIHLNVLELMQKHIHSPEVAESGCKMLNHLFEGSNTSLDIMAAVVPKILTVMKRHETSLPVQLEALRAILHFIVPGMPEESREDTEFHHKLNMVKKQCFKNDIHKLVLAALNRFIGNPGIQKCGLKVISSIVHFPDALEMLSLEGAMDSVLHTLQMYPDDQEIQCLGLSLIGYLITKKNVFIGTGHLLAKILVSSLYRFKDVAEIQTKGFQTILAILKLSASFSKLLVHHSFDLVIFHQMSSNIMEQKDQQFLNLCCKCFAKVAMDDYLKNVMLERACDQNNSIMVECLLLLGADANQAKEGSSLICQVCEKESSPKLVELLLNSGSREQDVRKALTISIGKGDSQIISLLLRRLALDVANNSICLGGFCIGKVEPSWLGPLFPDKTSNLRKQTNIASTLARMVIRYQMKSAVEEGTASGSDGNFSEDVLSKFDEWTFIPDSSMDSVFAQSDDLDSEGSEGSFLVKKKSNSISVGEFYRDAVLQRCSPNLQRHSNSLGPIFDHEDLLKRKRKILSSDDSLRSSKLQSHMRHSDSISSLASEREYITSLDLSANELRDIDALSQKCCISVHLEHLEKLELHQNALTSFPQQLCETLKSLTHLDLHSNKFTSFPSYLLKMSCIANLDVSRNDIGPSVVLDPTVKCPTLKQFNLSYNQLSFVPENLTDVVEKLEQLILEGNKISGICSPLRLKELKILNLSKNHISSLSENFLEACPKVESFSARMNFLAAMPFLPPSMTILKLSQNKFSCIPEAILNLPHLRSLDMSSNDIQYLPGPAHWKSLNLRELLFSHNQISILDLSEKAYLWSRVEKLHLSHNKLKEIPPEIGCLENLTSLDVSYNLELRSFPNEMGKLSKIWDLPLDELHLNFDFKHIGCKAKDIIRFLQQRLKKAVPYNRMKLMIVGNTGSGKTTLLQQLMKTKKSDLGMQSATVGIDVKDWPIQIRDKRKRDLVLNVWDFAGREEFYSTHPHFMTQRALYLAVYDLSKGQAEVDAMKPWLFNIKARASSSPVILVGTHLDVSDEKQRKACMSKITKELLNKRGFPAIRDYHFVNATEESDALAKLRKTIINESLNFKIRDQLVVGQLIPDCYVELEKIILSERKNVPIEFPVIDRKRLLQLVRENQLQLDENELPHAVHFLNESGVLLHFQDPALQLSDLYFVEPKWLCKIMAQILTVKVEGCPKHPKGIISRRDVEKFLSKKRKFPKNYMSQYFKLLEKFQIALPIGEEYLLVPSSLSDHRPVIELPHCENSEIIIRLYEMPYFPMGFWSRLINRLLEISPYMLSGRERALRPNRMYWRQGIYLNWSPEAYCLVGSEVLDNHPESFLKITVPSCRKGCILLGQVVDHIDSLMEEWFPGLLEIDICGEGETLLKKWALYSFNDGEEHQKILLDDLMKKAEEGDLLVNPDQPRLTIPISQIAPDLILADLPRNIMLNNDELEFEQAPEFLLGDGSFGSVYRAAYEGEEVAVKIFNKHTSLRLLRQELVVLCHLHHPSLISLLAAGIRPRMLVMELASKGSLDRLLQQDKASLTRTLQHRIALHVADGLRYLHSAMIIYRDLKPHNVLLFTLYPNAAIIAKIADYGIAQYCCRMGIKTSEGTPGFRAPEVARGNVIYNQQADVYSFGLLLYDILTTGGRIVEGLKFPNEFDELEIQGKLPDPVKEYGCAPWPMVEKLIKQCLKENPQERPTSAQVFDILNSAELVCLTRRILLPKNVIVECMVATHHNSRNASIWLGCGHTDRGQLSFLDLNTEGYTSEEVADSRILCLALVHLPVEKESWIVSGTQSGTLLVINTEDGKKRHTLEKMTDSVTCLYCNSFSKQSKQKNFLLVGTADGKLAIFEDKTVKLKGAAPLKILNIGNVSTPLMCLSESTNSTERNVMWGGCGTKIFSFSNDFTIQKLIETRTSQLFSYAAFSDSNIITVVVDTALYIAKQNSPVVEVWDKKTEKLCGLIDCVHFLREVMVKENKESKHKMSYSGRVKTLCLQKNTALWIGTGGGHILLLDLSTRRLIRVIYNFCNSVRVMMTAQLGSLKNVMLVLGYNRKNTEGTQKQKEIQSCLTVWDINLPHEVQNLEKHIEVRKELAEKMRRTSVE
UniProt Q9BXW4, residues 1-126: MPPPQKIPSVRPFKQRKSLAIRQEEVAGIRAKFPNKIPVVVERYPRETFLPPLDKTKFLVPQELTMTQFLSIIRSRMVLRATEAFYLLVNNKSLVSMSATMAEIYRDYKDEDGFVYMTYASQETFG

Biological target: GFP-LRRK2 (leucine-rich repeat kinase 2) (UniProt Q5S007)
Test: co-IP

## 3×FLAG-LC3A (from UniProt Q9H492 1-121)
  binding: no binding

## 3×FLAG-LC3C (from UniProt Q9BXW4 1-126)
  binding: no binding
